Measurements published in patent US20240043389A1, “COMPOUNDS AND METHODS FOR INHIBITION OF BAX-MEDIATED CELL DEATH” (Albert Einstein College of Medicine, priority 2020, published 2024).
For at least one compound, name, drawing or mass did not settle the structure.

By UniProt entry, the sequences of proteins in these tests, tags left out.
UniProt Q07812, whole entry K21E: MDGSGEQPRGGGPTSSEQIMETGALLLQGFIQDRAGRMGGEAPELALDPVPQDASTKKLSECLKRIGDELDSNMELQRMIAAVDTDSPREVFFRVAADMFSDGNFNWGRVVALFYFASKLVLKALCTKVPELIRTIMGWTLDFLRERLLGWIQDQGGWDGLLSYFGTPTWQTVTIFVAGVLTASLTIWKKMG
UniProt Q07812, whole entry: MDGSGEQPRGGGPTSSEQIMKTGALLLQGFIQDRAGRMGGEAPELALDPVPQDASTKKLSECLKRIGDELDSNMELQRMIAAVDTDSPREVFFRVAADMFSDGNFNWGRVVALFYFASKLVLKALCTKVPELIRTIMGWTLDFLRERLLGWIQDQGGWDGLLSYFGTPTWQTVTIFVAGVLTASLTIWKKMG
UniProt Q07812, whole entry S4C/C62S/C126S/R134E/R145E: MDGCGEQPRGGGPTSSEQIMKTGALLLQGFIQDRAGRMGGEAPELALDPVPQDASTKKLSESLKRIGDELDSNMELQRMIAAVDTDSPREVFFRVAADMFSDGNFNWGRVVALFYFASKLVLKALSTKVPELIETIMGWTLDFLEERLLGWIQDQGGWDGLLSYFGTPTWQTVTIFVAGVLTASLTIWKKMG
UniProt Q07812, whole entry R134E/R145E: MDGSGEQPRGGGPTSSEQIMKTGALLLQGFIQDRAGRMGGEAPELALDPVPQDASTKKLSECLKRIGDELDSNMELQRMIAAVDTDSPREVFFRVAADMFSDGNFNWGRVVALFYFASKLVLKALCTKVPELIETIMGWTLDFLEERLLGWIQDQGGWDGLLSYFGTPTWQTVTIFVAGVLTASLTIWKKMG
UniProt Q07812, whole entry R134E: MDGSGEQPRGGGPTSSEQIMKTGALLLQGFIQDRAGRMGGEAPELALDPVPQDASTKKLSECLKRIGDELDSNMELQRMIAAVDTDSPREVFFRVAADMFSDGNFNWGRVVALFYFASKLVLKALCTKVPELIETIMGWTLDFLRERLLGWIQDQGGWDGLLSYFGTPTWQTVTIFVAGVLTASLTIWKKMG

Legend:
BAX K21E = molecular target: T1, BAX K21E (Homo sapiens, UniProt Q07812, K21E); assay: Liposomal release assay, BAX K21E mutant; format: biochemical; conditions: 250 nM BAX, 5 nM tBID
T1 construct: Human full-length (1-192) wild-type BAX (Q07812); made in house; host or cells: E. coli BL21 (DE3) CodonPlus (DE3)-RIPL

BAX [1] = molecular target: T2, BAX (Homo sapiens, UniProt Q07812); assay: Competitive fluorescence polarization binding assay (FITC-BIM-SAHB displacement from BAX); conditions: FIG. 7a
T2 construct: Human full-length (1-192) wild-type BAX (Q07812); made in house; host or cells: E. coli BL21 (DE3) CodonPlus (DE3)-RIPL
Procedure: Fluorescence polarization assays (FPA) were performed as previously described (Reyna, D. E., et al. Cancer Cell 32 490-505 (2017)). Direct binding isotherms of BIM-SAHB were measured by incubated FITC-BIM-SAHB (25 nM) with serial dilutions of full-length BAX alone or in the presence of 0.5 or 1 μM EO. Competition binding assays were performed by titrating EO into BAX (150 nM) and FITC-BIM-SAHB (25 nM). Measurements were taken at 10-minute intervals over 60 minutes on a TECAN F200 PRO microplate reader. Reported curves represent a 10-minute time point. KD values and IC50 were determined using GraphPad Prism nonlinear fit four-parameter agonist or antagonist versus response with restraints for 100% and 0% bound calculated by the mP of saturated BAX+FITC-BIM-SAHB and FITC-BIM-SAHB alone.

BAX [2] = molecular target: T2, BAX; assay: Direct FP binding of FITC-BIM-SAHB to BAX in the presence of EO; conditions: constant 0.5 or 1 μM EO
BAX R134E R145E [3] = molecular target: T3, BAX R134E R145E (Homo sapiens, UniProt Q07812, C126S/C62S/R134E/R145E/S4C); assay: Microscale thermophoresis, double mutant; format: binding; conditions: double mutant versus BAX-4C
T3 construct: Human full-length (1-192) wild-type BAX (Q07812); made in house; host or cells: E. coli BL21 (DE3) CodonPlus (DE3)-RIPL

BAX R134E R145E [4] = molecular target: T4, BAX R134E R145E (Homo sapiens, UniProt Q07812, R134E/R145E); assay: 1H-15N HSQC NMR chemical shift perturbation, double mutant; format: binding
T4 construct: Human full-length (1-192) wild-type BAX (Q07812); made in house; host or cells: E. coli BL21 (DE3) CodonPlus (DE3)-RIPL

BAX [5] = molecular target: T2, BAX; assay: Liposomal translocation assay (NBD-labeled BAX); format: biochemical
BAX R134E = molecular target: T5, BAX R134E (Homo sapiens, UniProt Q07812, R134E); assay: Liposomal release assay, BAX R134E mutant; format: biochemical; conditions: 250 nM BAX, 5 nM tBID
T5 construct: Human full-length (1-192) wild-type BAX (Q07812); made in house; host or cells: E. coli BL21 (DE3) CodonPlus (DE3)-RIPL

BAX [6] = molecular target: T2, BAX; assay: BAX conformation change assay using anti-6A7 immunoprecipitation; format: biochemical; conditions: 10 μM BAX, 4 equivalents BIM-BH3, 5 or 10 equivalents EO
BAX [7] = molecular target: T2, BAX; assay: Liposomal permeabilization (release) assay; format: biochemical
Procedure: Liposomes were formed by extrusion of the suspension using Avanti Mini-Extruder (cat #610000) with polycarbonate membranes of 0.1 μm pore size (Avanti Polar Lipids). ANTS/DPX encapsulated liposomes were purified from non-encapsulated ANTS/DPX by gel filtration of a 10 mL CL2B-Sepharose (GE Healthcare Life Sciences) gravity flow column. […] Reactions were initiated by the addition of 10 μL of the encapsulated ANTS/DPX liposome stock. ANTS/DPX release was quantified based on the increase in fluorescence intensity that occurs when the ANTS fluorophore is separated from the DPX quencher upon release from the liposomes into solution. Fluorescence (λex=355 nm and λem=520 nm) was measured at 1-minute intervals at room temperature (22-25° C.) indicated using a Tecan Infinite M1000 plate reader. In the case of heat activation, reactions were setup as described in the absence of tBID or BIM, and experiments were recorded at 42° C. The percentage release of ANTS/DPX at any given time point was calculated as percentage release=((F−F0)/(F100−F0))(100), where F0 and F100 are baseline and maximal fluorescence, respectively. Triton X-100 (1%) was used to determine the maximum amount of liposomal release per assay and was set to 100%.

## CC1=NN(c2ccc(C)c(C)c2)C(=O)/C1=N\Nc1cccc(-c2cccc(C(=O)O)c2)c1O [EO, eltrombopag]
BAX K21E
  inhibition in response to EO versus WT: not reduced inhibition
BAX [1]
  competitive binding to the BAX trigger site (FP): competitive binding
BAX [2]
  affinity of FITC-BIM-SAHB for BAX in the presence of EO: decreased affinity
BAX R134E R145E [3]
  affinity by MST: markedly reduced affinity
BAX R134E R145E [4]
  chemical shift perturbations of 15N-labeled BAX double mutant: minimal CSPs
BAX [5]
  heat-induced auto-translocation of BAX: capable of inhibiting heat-induced auto-translocation of BAX
BAX R134E
  inhibition in response to EO versus WT: slight trend towards weaker inhibition
BAX [6]
  BIM-BH3 induced 6A7 epitope exposure: inhibited
BAX [7]; 50 nM BAX, 5 nM tBID, 30 minutes, FIG. 7b
  inhibition of tBID-induced BAX activity (liposomes): inhibit tBID-induced BAX activity
BAX [7]; concentrations up to 10 μM
  activation of recombinant BAX in liposomal release assay: no ability to activate recombinant BAX
